Experimental findings from paper doi:10.1101/2023.03.29.534689 are described below.

Results are given in words; binding and its absence hold for the method and conditions named.

This test has as its target T1, DCLK1.2 (human Doublecortin Like Kinase 1, isoform 2), purified recombinant protein (human), O15075.
T1 chain: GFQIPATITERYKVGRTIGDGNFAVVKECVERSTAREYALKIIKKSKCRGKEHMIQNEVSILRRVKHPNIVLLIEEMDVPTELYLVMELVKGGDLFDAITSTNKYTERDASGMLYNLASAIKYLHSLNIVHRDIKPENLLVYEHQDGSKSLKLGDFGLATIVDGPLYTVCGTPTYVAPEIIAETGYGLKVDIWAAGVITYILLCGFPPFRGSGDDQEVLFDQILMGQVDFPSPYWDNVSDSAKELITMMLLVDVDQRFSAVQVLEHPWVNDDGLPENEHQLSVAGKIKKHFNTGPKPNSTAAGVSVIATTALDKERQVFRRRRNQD
The experiment in a line: SEC; analytical SEC on Superdex 200 Increase 10/300 GL, 1 mg of each DCLK1 protein; standards BSA, carbonic anhydrase, alcohol dehydrogenase; fractions checked by SDS-PAGE; both purified. The settings on record: remark: other sources report otherwise. For orientation: In gel filtration, larger molecules generally elute earlier.

B1: DCLK1.2 (human Doublecortin Like Kinase 1, isoform 2), purified recombinant protein, O15075-1 379-704 (domain or fragment)
chain: T1 chain
As for B1, the binding result is recorded as “no binding (tested: 1 mg loaded)”.
